Experimental data reported in publication PMC7193638.
No constants are given. Whether binding was seen depends on the method and setting. For part of these data: Binding can be weak; no strength is given.

Legend:
Experiment in all cases: two-hybrid; UAS-GAL4 drop test with cloned ORFs: mated diploid cells, 10 µl of 10^6 cells/ml per drop, on SD-leu-trp and SD-leu-trp-his-ade plates, 3 days at 30 °C; empty pGBKT7-SfiI and pGADT7-SfiI as negative controls
[1] = target: European robin cryptochrome 4 (ErCry4), full length (European robin (Erithacus rubecula))
[2] = target: European robin cryptochrome 1a (ErCry1a) (European robin (Erithacus rubecula))
[3] = target: Cry4 of Gallus gallus (GgCry4), full length (Gallus gallus)

Binder | binding [1] | binding [2] | binding [3]
period protein 2 of Gallus gallus (GgPer2), full length (protein, UniProt Q8QGQ8 1-1344) MDCIEVRGFYSSTEEQNPEQQADISENISSLFSLKEQQKMSEYSGLASNHSQMIAEDSEIQPKPEHSPEVLQEDIEMSSGSSGNDFSGNETNENYSSGHDSHGHESDENGKDSAMLMESSDCHKSSSSNAFSLMIANSEHNQSSSGCSSEQSTKAKTQKELLKTLQELKAHLPAEKRIKGKSSVLTTLKYALKSIKQVKANEEYYQLLMINESQPSGLNVSSYTVEEVETITSEYIMKNADMFAVAVSLITGKIVYISDQAAAILRCKRSYFKNAKFVELLAPQDVSVFYTSTTPYRLPSWNICSRAESSTQDCMEEKSFFCRISAGKERENEICYHPFRMTPYLIKVQDPEVAEDQLCCVLLAEKVHSGYEAPRIPPDKRIFTTTHTPTCLFQDVDERAVPLLGYLPQDLIGTPVLVHLHPNDRPLMLAIHKKILQYGGQPFDYSPIRFCTRNGDYITMDTSWSSFINPWSRKVSFIIGRHKVRTGPLNEDVFAAPNYTEDRILHPSVQEITEQIYRLLLQPVHNSGSSGYGSLGSNGSHEHLMSVASSSDSTGNNNDDTQKDKTISQDARKVKTKGQHIFTENKGKLEYKREPSAEKQNGPGGQVKDVIGKDTTATAAPKNVATEELAWKEQPVYSYQQISCLDSVIRYLESCNVPGTAKRKCEPSSSVNSSVHEQKASVNAIQPLGDSTVLKSSGKSSGPPVVGAHLTSLALPGKPESVVSLTSQCSYSSTIVHVGDKKPQPELEMIEDGPSGAEVLDTQLPAPPPSSTHVNQEKESFKKLGLTKEVLAVHTQKEEQSFLNKFKEIKRFNIFQSHCNYYLQDKPKGRPGERGGRGQRNGTSGMDQPWKKSGKNRKSKRIKPQESSDSTTSGTKFPHRFPLQGLNTTAWSPSDTSQASYSAMSFPTVMPAYPLPVFPAAAGTVPPAPETSVSGFNQLPDSGNTCSMQPSQFSAPLMTPVVALVLPNYVYPEMNNSLPQTLYHSQANFPTHPAFSSQTVFPAQPPFTTPSPFPQQAFFPMQPFHYNPPAEIEKVPVTETRNEPSRSCTPQSVGPQDQASPPLFQSRCSSPLNLLQLEENTKTVESGAPAGLHGALNEEGTIGKIMTTDAGSGKGSLPAESPMDAQNSDALSMSSVLLDILLQEDACSGTGSASSGSGVSAAAESLGSGSNGCDMSGSRTGSSETSHTSKYFGSIDSSENHHKTKMKAEIEESEHFIKYVLQDPIWLLMANTDDTVMMTYQLPSRDLETVLKEDKLKLKQMQKLQPKFTEDQKRELIEVHPWIQQGGLPKTVANSECIFCEDNIQSNFYTSYDEEIHEMDLNEMIEDSGENNLVPLSQVNEEQT | no binding | binds | –
IscA1 of Drosophila melanogaster (DmIscA1), full length (protein, UniProt Q8T3X9 1-130) MATRVVATATVRAVKGRKLIPTRAALTLTPAAVLRIKTLLQDKPDMVGLKVGVRQRGCNGLSYTLDYASQKDKLDEEVVQDGVKVFIDKKAQLSLLGTEMDFVESKLSSEFVFNNPNIKGTCGCGESFSM | – | – | no binding
